# Assay results published in patent publication US20030215462A1, “Use of UGT inhibitors to increase bioavailability” (priority 2001, published 2003).
# Some results were stated once for a whole list of compounds, not compound by compound. For at least one compound, name, drawing or mass did not settle the structure.
# Molecular target: T1, UGT enzymes of human liver microsomes
# T1 construct: percentage of control metabolism, 7-HFC glucuronidation; percentage of control metabolism, 7-HFC glucuronidation
# Assay: Inhibition of 7-HFC glucuronidation in human liver microsomes
# Assay type: biochemical
# Details: 7-HFC 50 μM, 1 mM UDPGA, 15 min
smiles,measurement,value
O=C(O[C@@H]1Cc2c(O)cc(O)cc2O[C@@H]1c1cc(O)c(O)c(O)c1)c1cc(O)c(O)c(O)c1 [Epigallocatechin gallate],IC50,100 to 200 µM
